Binding data for one substance are collected here from publication PMC12045048.

The chains behind the UniProt entries cited, without tags or fusion partners.
UniProt Q96S21: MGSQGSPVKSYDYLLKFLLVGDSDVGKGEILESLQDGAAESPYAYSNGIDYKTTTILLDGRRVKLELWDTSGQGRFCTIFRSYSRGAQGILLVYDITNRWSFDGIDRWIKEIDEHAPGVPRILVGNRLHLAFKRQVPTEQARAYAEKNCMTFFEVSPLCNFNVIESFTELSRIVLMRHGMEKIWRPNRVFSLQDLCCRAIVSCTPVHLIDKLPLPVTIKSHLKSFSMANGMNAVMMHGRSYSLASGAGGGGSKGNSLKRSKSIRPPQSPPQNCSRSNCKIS
UniProt Q93034: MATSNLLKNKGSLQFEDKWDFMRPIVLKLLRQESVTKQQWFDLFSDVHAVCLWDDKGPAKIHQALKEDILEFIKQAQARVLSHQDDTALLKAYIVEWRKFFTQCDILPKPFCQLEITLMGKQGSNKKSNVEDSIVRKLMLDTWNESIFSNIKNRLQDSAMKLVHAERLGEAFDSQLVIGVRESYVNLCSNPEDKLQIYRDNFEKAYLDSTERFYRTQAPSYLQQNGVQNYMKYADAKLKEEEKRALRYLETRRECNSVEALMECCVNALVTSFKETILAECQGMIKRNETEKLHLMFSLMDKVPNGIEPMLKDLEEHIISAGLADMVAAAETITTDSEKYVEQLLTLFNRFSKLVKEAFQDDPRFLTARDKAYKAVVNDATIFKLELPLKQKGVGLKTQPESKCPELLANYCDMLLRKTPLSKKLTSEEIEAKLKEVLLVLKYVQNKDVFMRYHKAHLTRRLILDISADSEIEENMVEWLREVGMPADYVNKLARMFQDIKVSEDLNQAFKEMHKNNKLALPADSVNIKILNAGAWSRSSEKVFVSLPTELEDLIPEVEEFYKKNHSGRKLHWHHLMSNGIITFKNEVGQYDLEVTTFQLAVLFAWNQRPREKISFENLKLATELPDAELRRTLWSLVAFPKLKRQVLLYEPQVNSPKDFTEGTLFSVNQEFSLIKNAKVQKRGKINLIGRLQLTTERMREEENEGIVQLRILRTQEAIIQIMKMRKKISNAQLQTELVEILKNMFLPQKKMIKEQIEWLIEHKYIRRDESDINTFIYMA

No constants are given. Whether binding was seen depends on the method and setting. In cells and extracts the contact can be indirect. Some binding calls cover weakened binding; strength is not graded here.

The test has as its target FLAG–Rab40c wild-type (WT) in 293T cells (human) (UniProt Q96S21). In words: co-IP; 293T cells transfected with a FLAG-tagged Rab40 protein (in Fig. 3C alone or with HA–AMBRA1 or HA–AMBRA1-ΔN), anti-FLAG precipitation, blotted for the endogenous partner (AMBRA1 or cullin-5); lysis in 20 mM Tris-HCl pH 7.4, 150 mM NaCl, 2 mM EDTA, 1% Triton X-100, 10% glycerol; washes with lysis buffer plus 0.5 M NaCl.

Consider “cullin-5, endogenous in 293T cells (from UniProt Q93034 1-780)”, for which the binding entry is listed as “binds”.
